From patent US20240343799A1
Results are given in words; binding and its absence hold for the method and conditions named. Some binding calls cover weakened binding; strength is not graded here.

Chains of the proteins cited; added tags and fusions are not shown. Lines headed by an entry give the natural chain unless they say otherwise; changes in a name come on top. Residues count along the entry.
UniProt P40259: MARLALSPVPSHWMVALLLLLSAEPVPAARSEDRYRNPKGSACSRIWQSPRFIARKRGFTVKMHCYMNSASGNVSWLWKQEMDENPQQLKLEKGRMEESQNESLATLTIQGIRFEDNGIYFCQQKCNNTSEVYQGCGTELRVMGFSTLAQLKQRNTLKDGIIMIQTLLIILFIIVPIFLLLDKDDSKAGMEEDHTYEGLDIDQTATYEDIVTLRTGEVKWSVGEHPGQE
CD79b on the surface of B-cell non-Hodgkin's lymphoma cells: residues 29-229 of P40259
human CD79b (recombinant antigen in the ForteBio assays): residues 29-159 of P40259

Assays:
[1] = target: human CD79b (recombinant antigen in the ForteBio assays) (human) (UniProt P40259); experiment: BLI (ForteBio)
[2] = target: CD79b on the surface of B-cell non-Hodgkin's lymphoma cells (human) (UniProt P40259); experiment: flow cytometry on BJAB cells, goat anti-human IgG PE
[3] = target: CD79b on the surface of B-cell non-Hodgkin's lymphoma cells (human) (UniProt P40259); experiment: flow cytometry on Ramos cells, goat anti-human IgG PE

Measured: binding

B1: hz34F1.14 (antibody, V domains shown)
VH: QVQLVQSGAEVKKPGASVKVSCKASGYSFTTYWMNWVRQAPGQGLTWMGMIDPSDSETHYNHLFKDRVTMTVDKSTSTAYMELSSLRSEDTAVYYCTRAIGYWGQGTLVTVSS
VL: DVVMTQSPLSLPVTLGQPASISCKSSLSLLDSEGKTYLNWFQQRPGQSPRPLISLVSKLDSGVPDRFSGSGSGTDFTLKISRVEAEDVGVYYCWQGTHFPLTFGGGTKVEIK
binds: all assays above

B2: hz11G10.9.p1 (antibody, V domains shown)
VH: QVQLVQSGAEVKKPGASVKVSCKASGYTFTDYWVNWVRQAPGQGLEWMGMIDPSDSETHYNQMFNDRVTMTVDTSTSTVYMELSSLRSEDTAVYYCTRSNYYWGQGTLVTVSS
VL: DIVMTQTPLSLSVTPGQPASISCKSSQSLLDSEGKTYLNWLLQKPGQSPQSLIYLVSKLDSGVPDRFSGSGSGTDFTLKISRVEAEDVGVYYCWQGTHFPLTFGGGTKVEIK
binds: all assays above

B3: hz38D9B3.11 (antibody, V domains shown)
VH: QVQLVQSGSELKKPGASVKVSCKASGYTFTDYSMHWVRQAPGQGLEWMGWINTETGEPSYADDFKGRFVFSLDTSVSTAYLQISSLKAEDTAVYYCYYGPYWGQGTLVTVSS
VL: EIVLTQSPATLSLSPGERATLSCKASQSVDHDVDSYMDWYQQKPGQAPRLLIYSASNLESGIPARFSGSGSGTDFTLTISSLEPEDFAVYYCQQINEYPYTFGGGTKVEIK
binds: all assays above
